Experimental findings from doi:10.1101/2020.05.30.124925 are described below.

Sequences of proteins named here, by UniProt entry; tags and fusion partners are left off.
UniProt P38903: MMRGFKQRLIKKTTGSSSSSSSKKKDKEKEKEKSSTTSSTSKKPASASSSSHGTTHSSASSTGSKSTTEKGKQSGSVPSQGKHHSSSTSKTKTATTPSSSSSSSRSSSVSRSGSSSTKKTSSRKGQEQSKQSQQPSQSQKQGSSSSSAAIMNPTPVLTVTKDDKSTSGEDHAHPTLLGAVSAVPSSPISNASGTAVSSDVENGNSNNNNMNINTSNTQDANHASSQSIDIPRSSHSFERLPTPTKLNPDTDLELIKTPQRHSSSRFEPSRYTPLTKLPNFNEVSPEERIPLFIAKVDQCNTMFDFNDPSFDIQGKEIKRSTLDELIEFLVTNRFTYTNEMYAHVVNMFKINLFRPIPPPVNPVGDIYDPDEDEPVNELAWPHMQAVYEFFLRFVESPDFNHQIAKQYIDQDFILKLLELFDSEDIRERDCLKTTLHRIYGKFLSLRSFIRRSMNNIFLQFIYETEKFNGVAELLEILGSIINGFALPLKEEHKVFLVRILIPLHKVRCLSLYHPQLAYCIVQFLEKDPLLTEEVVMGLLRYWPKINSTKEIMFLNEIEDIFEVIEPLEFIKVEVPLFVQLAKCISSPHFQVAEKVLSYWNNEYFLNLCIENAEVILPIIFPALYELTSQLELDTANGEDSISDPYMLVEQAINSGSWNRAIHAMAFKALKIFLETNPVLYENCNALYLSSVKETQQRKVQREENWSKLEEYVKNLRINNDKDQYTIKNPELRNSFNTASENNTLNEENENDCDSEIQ

Results are given in words; binding and its absence hold for the method and conditions named. Binding seen in cells or lysates may run through a third protein. These calls come from enrichment with a bait or labelling near it, and not all partners need be listed. Tags and fused reporters may be left off the sequences shown.

The target of the assay is Rts1-HKMT-myc (S. cerevisiae) (UniProt P38903). The assay is described as follows: proximity labelling.

B1: Rck2-protA-H3-HA (protein, UniProt P38623 1-610)
chain: MLKIKALFSKKKPDQADLSQESKKPFKGKTRSSGTNNKDVSQITSSPKKSFQDKNIVQYPSVVADDHHMKSLTDELVTTIDSDSSPSDNITTENVETVTSVPAIDVHESSEGQLSSDPLISDESLSEQSEIISDIQDDSTDDDNMEDEIPEKSFLEQKELIGYKLINKIGEGAFSKVFRAIPAKNSSNEFLTKNYKAVAIKVIKKADLSSINGDHRKKDKGKDSTKTSSRDQVLKEVALHKTVSAGCSQIVAFIDFQETDSYYYIIQELLTGGEIFGEIVRLTYFSEDLSRHVIKQLALAVKHMHSLGVVHRDIKPENLLFEPIEFTRSIKPKLRKSDDPQTKADEGIFTPGVGGGGIGIVKLADFGLSKQIFSKNTKTPCGTVGYTAPEVVKDEHYSMKVDMWGIGCVLYTMLCGFPPFYDEKIDTLTEKISRGEYTFLKPWWDEISAGAKNAVAKLLELEPSKRYDIDQFLDDPWLNTFDCLPKEGESSQKKAGTSERRHPHKKQFQLFQRDSSLLFSPAAVAMRDAFDIGNAVKRTEEDRMGTRGGLGSLAEDEELEDSYSGAQGDEQLEQNMFQLTLDTSTILQRRKKVQENDVGPTIPISATIRE
Consider B1, for which the binding entry is “binds”.
